Sequences of proteins named here, by UniProt entry; tags and fusion partners are left off. A change or cut given only in a name is not applied to a line headed by its entry.
UniProt Q99466: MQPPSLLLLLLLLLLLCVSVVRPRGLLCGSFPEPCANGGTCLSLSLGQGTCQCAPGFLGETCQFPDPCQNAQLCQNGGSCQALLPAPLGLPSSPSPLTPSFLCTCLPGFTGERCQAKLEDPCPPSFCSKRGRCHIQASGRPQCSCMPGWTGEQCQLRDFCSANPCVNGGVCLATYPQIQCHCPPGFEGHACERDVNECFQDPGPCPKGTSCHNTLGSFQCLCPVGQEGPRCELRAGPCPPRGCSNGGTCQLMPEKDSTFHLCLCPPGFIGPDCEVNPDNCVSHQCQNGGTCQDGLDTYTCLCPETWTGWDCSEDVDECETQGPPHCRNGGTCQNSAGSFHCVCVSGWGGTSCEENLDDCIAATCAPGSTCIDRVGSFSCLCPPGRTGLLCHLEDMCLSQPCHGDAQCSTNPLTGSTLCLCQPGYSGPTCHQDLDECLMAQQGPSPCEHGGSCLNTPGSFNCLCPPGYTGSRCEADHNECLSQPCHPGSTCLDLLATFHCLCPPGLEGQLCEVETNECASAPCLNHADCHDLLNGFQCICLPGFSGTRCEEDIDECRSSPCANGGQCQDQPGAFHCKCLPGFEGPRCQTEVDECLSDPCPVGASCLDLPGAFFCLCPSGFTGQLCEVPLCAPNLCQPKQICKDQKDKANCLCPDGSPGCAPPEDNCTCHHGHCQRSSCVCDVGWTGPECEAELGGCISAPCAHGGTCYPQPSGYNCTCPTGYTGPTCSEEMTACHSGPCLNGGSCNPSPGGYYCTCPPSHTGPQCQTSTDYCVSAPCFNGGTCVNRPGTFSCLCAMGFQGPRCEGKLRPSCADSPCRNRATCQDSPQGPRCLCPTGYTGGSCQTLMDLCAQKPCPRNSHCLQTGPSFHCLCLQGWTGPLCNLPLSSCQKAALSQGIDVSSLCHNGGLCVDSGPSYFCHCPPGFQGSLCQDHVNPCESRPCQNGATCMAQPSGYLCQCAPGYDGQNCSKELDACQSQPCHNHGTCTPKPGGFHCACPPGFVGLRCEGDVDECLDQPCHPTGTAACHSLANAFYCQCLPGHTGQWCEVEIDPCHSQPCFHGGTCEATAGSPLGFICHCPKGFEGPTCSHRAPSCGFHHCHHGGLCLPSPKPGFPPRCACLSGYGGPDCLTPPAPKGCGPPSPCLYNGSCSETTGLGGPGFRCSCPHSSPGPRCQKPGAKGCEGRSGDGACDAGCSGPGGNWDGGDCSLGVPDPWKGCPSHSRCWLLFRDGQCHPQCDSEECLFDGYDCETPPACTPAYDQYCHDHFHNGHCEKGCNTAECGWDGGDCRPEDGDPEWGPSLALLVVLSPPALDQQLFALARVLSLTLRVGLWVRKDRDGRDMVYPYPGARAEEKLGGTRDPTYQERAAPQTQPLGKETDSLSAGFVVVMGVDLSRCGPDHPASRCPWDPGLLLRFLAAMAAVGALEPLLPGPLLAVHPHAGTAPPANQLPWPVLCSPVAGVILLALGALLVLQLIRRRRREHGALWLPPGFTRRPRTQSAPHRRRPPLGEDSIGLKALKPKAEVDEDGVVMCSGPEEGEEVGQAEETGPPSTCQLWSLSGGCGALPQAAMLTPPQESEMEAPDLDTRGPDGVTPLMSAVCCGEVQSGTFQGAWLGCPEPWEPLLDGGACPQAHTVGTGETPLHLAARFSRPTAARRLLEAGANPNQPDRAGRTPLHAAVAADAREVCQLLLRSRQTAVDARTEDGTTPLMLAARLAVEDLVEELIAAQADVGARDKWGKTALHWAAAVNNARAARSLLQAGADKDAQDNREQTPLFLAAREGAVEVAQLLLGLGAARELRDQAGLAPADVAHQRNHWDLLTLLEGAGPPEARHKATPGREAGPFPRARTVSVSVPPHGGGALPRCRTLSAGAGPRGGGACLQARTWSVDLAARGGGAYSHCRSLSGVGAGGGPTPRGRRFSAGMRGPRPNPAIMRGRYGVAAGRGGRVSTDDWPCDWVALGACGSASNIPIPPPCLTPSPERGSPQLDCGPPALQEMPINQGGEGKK

In patent US20230303682A1:

B1: hu1B2.v101 (antibody, V domains shown)
VH: EVQLVESGGGLVQPGGSLKLSCAVSGFTFSDFYMEWVRQASGKGLEWVAAQRNKANDFSIVYSASVKDRFTISRDDSKSTLYLQMNSLKTEDTAVYYCSRDGGRWGLDAWGQGTLVTVSS
VL: DIQMTQSPSSVSASVGDRVTITCQTSEDIYSGLAWYQQKPGKSPKLLIYGASRLQDGVPSRFSGSGSGTDYTLTISSLQPEDFATYYCQQGFKYPLTFGGGTKVEIK
B2: hu1B2.v102 (antibody, V domains shown)
VH: EVQLVESGGGLVQPGGSLKLSCAVSGFTFSDFYMEWVRQASGKGLEWVAAQRNKANDFSIVYSASVKDRFTISRDDSKSTLYLQMNSLKTEDTAVYYCSRDGGRLALDAWGQGTLVTVSS
VL: DIQMTQSPSSVSASVGDRVTITCQTSEDIYSGLAWYQQKPGKSPKLLIYGASRLQDGVPSRFSGSGSGTDYTLTISSLQPEDFATYYCQQGFKYPLTFGGGTKVEIK
B3: hu1B2.v103 (antibody, V domains shown)
VH: EVQLVESGGGLVQPGGSLKLSCAVSGFTFSDFYMEWVRQASGKGLEWVAAQRNKANDFSIVYSASVKDRFTISRDDSKSTLYLQMNSLKTEDTAVYYCSRDGGKWGLDAWGQGTLVTVSS
VL: DIQMTQSPSSVSASVGDRVTITCQTSEDIYSGLAWYQQKPGKSPKLLIYGASRLQDGVPSRFSGSGSGTDYTLTISSLQPEDFATYYCQQGFKYPLTFGGGTKVEIK
B4: hu1B2.v104 (antibody, V domains shown)
VH: EVQLVESGGGLVQPGGSLKLSCAVSGFTFSDFYMEWVRQASGKGLEWVAAQRNKANDFSIVYSASVKDRFTISRDDSKSTLYLQMNSLKTEDTAVYYCSRDGGKLALDAWGQGTLVTVSS
VL: DIQMTQSPSSVSASVGDRVTITCQTSEDIYSGLAWYQQKPGKSPKLLIYGASRLQDGVPSRFSGSGSGTDYTLTISSLQPEDFATYYCQQGFKYPLTFGGGTKVEIK

Molecular target: human Notch4 (human) (UniProt Q99466)
Experiment: SPR

binding, no binding:
B1
B2
B3
B4

Results are given in words; binding and its absence hold for the method and conditions named.
